Assay [1] deals with BRCA1 WT stably overexpressed in K562 cells (human) (UniProt P38398). Nature of the assay: co-IP; K562 cells overexpressing BRCA1 WT or 4 mutant variants, treated with 30 µM hemin for 2 days and MG132 for 6 h; antibody of the immunoprecipitation not told.
The target of another assay is GST-BRCA1 (human) (UniProt P38398). The assay is described as follows: pull-down; GST-BRCA1 or GST-BRCA1 deletion mutants incubated with extracts of K562 cells; eluted, SDS-PAGE, immunoblot; only the target purified. (In general: Immunoblotting shows a protein as a band on a membrane.)
The target in assay [2] is T1, GST-BRCA1 del#2 (residues 400-1100) (human) (UniProt P38398).
T1 sequence: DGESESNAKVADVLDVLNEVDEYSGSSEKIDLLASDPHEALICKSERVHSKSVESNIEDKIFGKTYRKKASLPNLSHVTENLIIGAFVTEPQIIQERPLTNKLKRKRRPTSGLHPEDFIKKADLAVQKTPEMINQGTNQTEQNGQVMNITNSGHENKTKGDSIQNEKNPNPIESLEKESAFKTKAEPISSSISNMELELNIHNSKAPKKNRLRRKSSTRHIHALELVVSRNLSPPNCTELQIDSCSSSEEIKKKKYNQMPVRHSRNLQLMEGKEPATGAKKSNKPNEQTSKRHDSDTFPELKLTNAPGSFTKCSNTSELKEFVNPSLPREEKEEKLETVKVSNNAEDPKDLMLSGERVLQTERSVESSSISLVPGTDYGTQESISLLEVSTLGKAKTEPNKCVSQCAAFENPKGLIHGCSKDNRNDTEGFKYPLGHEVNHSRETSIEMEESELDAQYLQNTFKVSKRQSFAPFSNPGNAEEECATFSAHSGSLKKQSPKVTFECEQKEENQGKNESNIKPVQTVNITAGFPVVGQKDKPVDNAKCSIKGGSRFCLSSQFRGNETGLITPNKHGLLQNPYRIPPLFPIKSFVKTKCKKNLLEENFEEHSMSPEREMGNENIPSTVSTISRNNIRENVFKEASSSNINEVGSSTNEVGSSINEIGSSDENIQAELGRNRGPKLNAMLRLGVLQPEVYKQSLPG
The description is as above.

The chains behind the UniProt entries cited, without tags or fusion partners.
UniProt O96028: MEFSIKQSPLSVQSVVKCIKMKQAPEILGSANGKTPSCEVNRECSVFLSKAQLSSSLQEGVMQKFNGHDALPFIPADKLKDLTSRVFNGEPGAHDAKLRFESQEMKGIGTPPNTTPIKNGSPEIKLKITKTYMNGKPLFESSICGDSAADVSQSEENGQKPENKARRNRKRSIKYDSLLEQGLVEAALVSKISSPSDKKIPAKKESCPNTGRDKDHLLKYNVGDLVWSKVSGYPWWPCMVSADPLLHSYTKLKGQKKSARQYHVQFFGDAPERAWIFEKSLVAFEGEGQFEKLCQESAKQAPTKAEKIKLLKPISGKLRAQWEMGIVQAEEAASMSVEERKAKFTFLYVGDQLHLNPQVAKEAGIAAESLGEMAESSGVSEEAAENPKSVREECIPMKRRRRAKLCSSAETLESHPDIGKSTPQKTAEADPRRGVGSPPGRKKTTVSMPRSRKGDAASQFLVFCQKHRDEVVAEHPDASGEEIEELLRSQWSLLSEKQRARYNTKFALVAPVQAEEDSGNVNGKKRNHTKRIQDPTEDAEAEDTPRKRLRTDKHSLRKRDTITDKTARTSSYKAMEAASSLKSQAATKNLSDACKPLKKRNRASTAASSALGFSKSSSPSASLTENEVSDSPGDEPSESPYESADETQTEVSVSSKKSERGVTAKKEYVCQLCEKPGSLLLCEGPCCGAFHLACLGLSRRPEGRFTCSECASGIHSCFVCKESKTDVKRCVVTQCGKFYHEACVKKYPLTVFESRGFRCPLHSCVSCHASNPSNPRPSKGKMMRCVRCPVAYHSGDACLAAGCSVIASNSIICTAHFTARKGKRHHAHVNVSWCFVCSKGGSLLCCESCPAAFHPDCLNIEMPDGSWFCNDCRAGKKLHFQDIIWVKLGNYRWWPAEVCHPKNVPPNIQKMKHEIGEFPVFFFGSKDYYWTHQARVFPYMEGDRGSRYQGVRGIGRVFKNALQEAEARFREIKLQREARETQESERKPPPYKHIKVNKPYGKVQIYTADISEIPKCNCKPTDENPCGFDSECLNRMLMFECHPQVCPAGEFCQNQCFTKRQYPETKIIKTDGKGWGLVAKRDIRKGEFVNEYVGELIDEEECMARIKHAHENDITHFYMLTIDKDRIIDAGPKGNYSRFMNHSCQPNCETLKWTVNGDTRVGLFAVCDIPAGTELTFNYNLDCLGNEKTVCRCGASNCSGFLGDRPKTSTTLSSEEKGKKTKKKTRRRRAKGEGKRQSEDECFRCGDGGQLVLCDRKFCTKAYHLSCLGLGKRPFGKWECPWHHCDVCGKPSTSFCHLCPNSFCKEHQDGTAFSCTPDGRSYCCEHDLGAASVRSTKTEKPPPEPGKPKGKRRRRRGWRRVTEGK

In assay [3] the target is BRCA1, endogenous in K562 cells (human (endogenous in K562)) (UniProt P38398). The assay is described as follows: co-IP; endogenous proteins; immunoprecipitated with anti-BRCA1 antibody from K562 cells treated with 30 µM hemin for 2 days and MG132 for 6 h.
Another assay addresses flag-BRCA1 (human) (UniProt P38398). Nature of the assay: co-IP; 293T cells transfected with flag-BRCA1; legend: immunoprecipitated with anti-flag antibody; methods: lysates after 48 h immunoprecipitated with an NSD2 antibody, protein A/G agarose, 2 h at 4 °C; immunoblot.

These are yes or no findings as the source states them, for the method shown. Binding seen in cells or lysates may run through a third protein. Some results given as binding are weak or reduced against the parent protein; the word gives no strength. For some assays here: Sequences can lack the tags named with a protein.

Turning to “NSD2, endogenous in K562 cells (from UniProt O96028 1-1365)”, the binding entry (in assay [1]; with GST-BRCA1 (human); in assay [2]; in assay [3]) was “binds” in each case.

As for “NSD2 in 293T cells (from UniProt O96028 1-1365)”, in the assay with flag-BRCA1 (human), the binding entry is given as “binds”.
